According to ChEMBL document CHEMBL1153021, “Phenylphenalenones from the Australian plant Haemodorum simplex” (J Nat Prod, 2009):

Key:
Format in all cases: functional, organism-based
Pseudomonas aeruginosa = experiment: Antimicrobial activity against Pseudomonas aeruginosa ATCC 27853 at 10 ug
Escherichia coli = experiment: Antibacterial activity against Escherichia coli ATCC 25922 at 10 ug
Candida albicans = experiment: Antifungal activity against Candida albicans ATCC 14053 at 100 IU

Sequence | inhibition zone (IZ) (Pseudomonas aeruginosa) | inhibition zone (IZ) (Escherichia coli) | inhibition zone (IZ) (Candida albicans)
GENTAMICIN | 10 mm | 10 mm | –
NYSTATIN | – | – | 12 mm
